# Like-named read-outs stand apart in the source and are kept apart here. No constants are given. Whether binding was seen depends on the method and setting. In cells and extracts the contact can be indirect. A yes stands for co-enrichment or nearness to the bait. Other partners may have been found.
# The chains behind the UniProt entries cited, without tags or fusion partners.
# UniProt P46108: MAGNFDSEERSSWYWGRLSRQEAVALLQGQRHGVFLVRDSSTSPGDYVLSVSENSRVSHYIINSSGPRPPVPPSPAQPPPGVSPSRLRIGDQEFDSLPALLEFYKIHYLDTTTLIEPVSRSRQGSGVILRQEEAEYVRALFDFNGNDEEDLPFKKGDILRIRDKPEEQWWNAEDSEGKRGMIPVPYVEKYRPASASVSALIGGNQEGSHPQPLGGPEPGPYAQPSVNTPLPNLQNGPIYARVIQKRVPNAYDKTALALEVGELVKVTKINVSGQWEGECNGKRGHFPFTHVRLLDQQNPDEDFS
# UniProt P46109: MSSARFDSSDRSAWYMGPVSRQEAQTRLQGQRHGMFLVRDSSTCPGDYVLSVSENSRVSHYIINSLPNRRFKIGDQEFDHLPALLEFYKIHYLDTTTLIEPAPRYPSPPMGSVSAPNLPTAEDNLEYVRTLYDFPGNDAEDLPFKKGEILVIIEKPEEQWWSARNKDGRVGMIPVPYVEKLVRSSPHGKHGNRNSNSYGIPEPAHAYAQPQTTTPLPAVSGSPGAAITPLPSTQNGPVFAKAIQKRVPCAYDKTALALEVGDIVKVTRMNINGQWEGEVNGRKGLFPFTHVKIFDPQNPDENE
# UniProt P16949: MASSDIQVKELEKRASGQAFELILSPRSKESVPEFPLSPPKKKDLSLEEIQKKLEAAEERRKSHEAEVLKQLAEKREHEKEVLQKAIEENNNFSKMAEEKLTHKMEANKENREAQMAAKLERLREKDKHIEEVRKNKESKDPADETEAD
# UniProt O00459: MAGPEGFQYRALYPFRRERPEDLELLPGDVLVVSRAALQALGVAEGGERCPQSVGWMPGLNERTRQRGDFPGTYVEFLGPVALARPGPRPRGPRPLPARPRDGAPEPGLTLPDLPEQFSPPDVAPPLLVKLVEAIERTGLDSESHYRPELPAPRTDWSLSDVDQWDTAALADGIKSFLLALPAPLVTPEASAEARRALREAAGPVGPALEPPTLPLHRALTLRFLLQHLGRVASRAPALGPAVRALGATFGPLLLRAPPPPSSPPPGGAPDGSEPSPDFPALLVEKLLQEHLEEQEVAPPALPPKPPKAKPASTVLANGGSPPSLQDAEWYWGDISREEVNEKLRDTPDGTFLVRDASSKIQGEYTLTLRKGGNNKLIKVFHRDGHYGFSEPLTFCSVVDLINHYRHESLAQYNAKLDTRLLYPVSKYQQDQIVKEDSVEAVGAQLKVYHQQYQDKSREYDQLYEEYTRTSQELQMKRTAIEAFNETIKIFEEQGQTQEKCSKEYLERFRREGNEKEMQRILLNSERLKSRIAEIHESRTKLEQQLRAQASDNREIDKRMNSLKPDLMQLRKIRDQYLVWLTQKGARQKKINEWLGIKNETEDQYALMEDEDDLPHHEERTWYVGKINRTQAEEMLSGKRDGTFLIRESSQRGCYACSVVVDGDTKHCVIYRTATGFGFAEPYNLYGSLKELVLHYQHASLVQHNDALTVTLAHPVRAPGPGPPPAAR
# Columns and labels:
# [1] = target: haemagglutinin (HA)-tagged human Gab2 (human) (UniProt Q9UQC2)
# [2] = target: haemagglutinin (HA)-tagged human Gab2 (human) (UniProt Q9UQC2); remark: listed apart in the source
# [3] = target: haemagglutinin (HA)-tagged human Gab2 (human) (UniProt Q9UQC2); remark: listed apart in the source
# [4] = target: haemagglutinin (HA)-tagged human Gab2 (human) (UniProt Q9UQC2); remark: listed apart in the source
# [5] = target: haemagglutinin (HA)-tagged human Gab2 (human) (UniProt Q9UQC2); remark: listed apart in the source
molecule,measurement,setting,value
Casein kinase II α’ (CSNK2A2; CK2) (from UniProt P19784 1-350) (enzyme),binding,[1],binds
Crk adaptor (from UniProt P46108 1-304),binding,[2],binds
CrkL (from UniProt P46109 1-303),binding,[2],binds
Stathmin 1 (from UniProt P16949 1-149),binding,[3],binds
p85β subunit of PI3K (PIK3R2) (from UniProt O00459 1-728),binding,[4],binds
"SHC1 (protein, UniProt P29353 1-583) MDLLPPKPKYNPLRNESLSSLEEGASGSTPPEELPSPSASSLGPILPPLPGDDSPTTLCSFFPRMSNLRLANPAGGRPGSKGEPGRAADDGEGIVGAAMPDSGPLPLLQDMNKLSGGGGRRTRVEGGQLGGEEWTRHGSFVNKPTRGWLHPNDKVMGPGVSYLVRYMGCVEVLQSMRALDFNTRTQVTREAISLVCEAVPGAKGATRRRKPCSRPLSSILGRSNLKFAGMPITLTVSTSSLNLMAADCKQIIANHHMQSISFASGGDPDTAEYVAYVAKDPVNQRACHILECPEGLAQDVISTIGQAFELRFKQYLRNPPKLVTPHDRMAGFDGSAWDEEEEEPPDHQYYNDFPGKEPPLGGVVDMRLREGAAPGAARPTAPNAQTPSHLGATLPVGQPVGGDPEVRKQMPPPPPCPGRELFDDPSYVNVQNLDKARQAVGGAGPPNPAINGSAPRDLFDMKPFEDALRVPPPPQSVSMAEQLRGEPWFHGKLSRREAEALLQLNGDFLVRESTTTPGQYVLTGLQSGQPKHLLLVDPEGVVRTKDHRFESVSHLISYHMDNHLPIISAGSELCLQQPVERKL",binding,[5],binds
"Stathmin 2 (protein, UniProt Q93045 1-179) MAKTAMAYKEKMKELSMLSLICSCFYPEPRNINIYTYDDMEVKQINKRASGQAFELILKPPSPISEAPRTLASPKKKDLSLEEIQKKLEAAEERRKSQEAQVLKQLAEKREHEREVLQKALEENNNFSKMAEEKLILKMEQIKENREANLAAIIERLQEKERHAAEVRRNKELQVELSG",binding,[3],binds
"SHIP2 (INPPL1) (enzyme, UniProt O15357 1-1258) MASACGAPGPGGALGSQAPSWYHRDLSRAAAEELLARAGRDGSFLVRDSESVAGAFALCVLYQKHVHTYRILPDGEDFLAVQTSQGVPVRRFQTLGELIGLYAQPNQGLVCALLLPVEGEREPDPPDDRDASDGEDEKPPLPPRSGSTSISAPTGPSSPLPAPETPTAPAAESAPNGLSTVSHDYLKGSYGLDLEAVRGGASHLPHLTRTLATSCRRLHSEVDKVLSGLEILSKVFDQQSSPMVTRLLQQQNLPQTGEQELESLVLKLSVLKDFLSGIQKKALKALQDMSSTAPPAPQPSTRKAKTIPVQAFEVKLDVTLGDLTKIGKSQKFTLSVDVEGGRLVLLRRQRDSQEDWTTFTHDRIRQLIKSQRVQNKLGVVFEKEKDRTQRKDFIFVSARKREAFCQLLQLMKNKHSKQDEPDMISVFIGTWNMGSVPPPKNVTSWFTSKGLGKTLDEVTVTIPHDIYVFGTQENSVGDREWLDLLRGGLKELTDLDYRPIAMQSLWNIKVAVLVKPEHENRISHVSTSSVKTGIANTLGNKGAVGVSFMFNGTSFGFVNCHLTSGNEKTARRNQNYLDILRLLSLGDRQLNAFDISLRFTHLFWFGDLNYRLDMDIQEILNYISRKEFEPLLRVDQLNLEREKHKVFLRFSEEEISFPPTYRYERGSRDTYAWHKQKPTGVRTNVPSWCDRILWKSYPETHIICNSYGCTDDIVTSDHSPVFGTFEVGVTSQFISKKGLSKTSDQAYIEFESIEAIVKTASRTKFFIEFYSTCLEEYKKSFENDAQSSDNINFLKVQWSSRQLPTLKPILADIEYLQDQHLLLTVKSMDGYESYGECVVALKSMIGSTAQQFLTFLSHRGEETGNIRGSMKVRVPTERLGTRERLYEWISIDKDEAGAKSKAPSVSRGSQEPRSGSRKPAFTEASCPLSRLFEEPEKPPPTGRPPAPPRAAPREEPLTPRLKPEGAPEPEGVAAPPPKNSFNNPAYYVLEGVPHQLLPPEPPSPARAPVPSATKNKVAITVPAPQLGHHRHPRVGEGSSSDEESGGTLPPPDFPPPPLPDSAIFLPPSLDPLPGPVVRGRGGAEARGPPPPKAHPRPPLPPGPSPASTFLGEVASGDDRSCSVLQMAKTLSEVDYAPAGPARSALLPGPLELQPPRGLPSDYGRPLSFPPPRIRESIQEDLAEEAPCLQGGRASGLGEAGMSAWLRAIGLERYEEGLVHNGWDDLEFLSDITEEDLEEAGVQDPAHKRLLLDTLQLSK",binding,[5],binds
"SHC2 (protein, UniProt P98077 1-582) MTQGPGGRAPPAPPAPPEPEAPTTFCALLPRMPQWKFAAPGGFLGRGPAAARAAGASGGADPQPEPAGPGGVPALAAAVLGACEPRCAAPCPLPALSRCRGAGSRGSRGGRGAAGSGDAAAAAEWIRKGSFIHKPAHGWLHPDARVLGPGVSYVVRYMGCIEVLRSMRSLDFNTRTQVTREAINRLHEAVPGVRGSWKKKAPNKALASVLGKSNLRFAGMSISIHISTDGLSLSVPATRQVIANHHMPSISFASGGDTDMTDYVAYVAKDPINQRACHILECCEGLAQSIISTVGQAFELRFKQYLHSPPKVALPPERLAGPEESAWGDEEDSLEHNYYNSIPGKEPPLGGLVDSRLALTQPCALTALDQGPSPSLRDACSLPWDVGSTGTAPPGDGYVQADARGPPDHEEHLYVNTQGLDAPEPEDSPKKDLFDMRPFEDALKLHECSVAAGVTAAPLPLEDQWPSPPTRRAPVAPTEEQLRQEPWYHGRMSRRAAERMLRADGDFLVRDSVTNPGQYVLTGMHAGQPKHLLLVDPEGVVRTKDVLFESISHLIDHHLQNGQPIVAAESELHLRGVVSREP",binding,[5],binds
"PIP1, an aspartyl protease (protein, UniProt P12273 29-146) QDNTRKIIIKNFDIPKSVRPNDEVTAVLAVQTELKECMVVKTYLISSIPLQGAFNYKYTACLCDDNPKTFYWDFYTNRTVQIAAVVDVIRELGICPDDAAVIPIKNNRFYTIEILKVE",binding,[3],binds

# — publication PMC3640961
